Experimental data as given in article PMC8359183, “The periplasmic domains of Vibriocholerae ToxR and ToxS are forming a strong heterodimeric complex independent on the redox state of ToxR cysteines” (Molecular Microbiology, 2021).
These are yes or no findings as the source states them, for the method shown.

Molecular target: periplasmic domain of Vibrio cholerae ToxR, oxidized, with an intramolecular disulfide bond (ToxRp-ox) (Vibrio cholerae)
Assay: NMR relaxation (rotational correlation time from 15N T1 and T2); both purified

B1: periplasmic domain of Vibrio cholerae ToxR, oxidized, with an intramolecular disulfide bond (ToxRp-ox) (domain or fragment)
chain: PSQTSFKPLTVVDGVAVNMPNNHPDLSNWLPSIELCVKKYNEKHTGGLKPIEVIATGGQNNQLTLNYIHSPEVSGENITLRIVANPNDAIKVCE
notes: also called pToxR-ox; ToxRp-ox-V.c
  binding: no binding
